Results are given in words; binding and its absence hold for the method and conditions named. In cells and extracts the contact can be indirect. A yes stands for co-enrichment or nearness to the bait. Other partners may have been found.
Target: Protein arginine methyltransferase 6 (human (endogenous in LN229 and U251)) (UniProt Q96LA8)
Assay: affinity purification with mass spectrometry; proteins binding PRMT6 in LN229 and U251 cells identified by mass spectrometry; hits shared by both cell lines; how PRMT6 was isolated is not told

By UniProt entry, the sequences of proteins in these tests, tags left out.
UniProt Q96LA8: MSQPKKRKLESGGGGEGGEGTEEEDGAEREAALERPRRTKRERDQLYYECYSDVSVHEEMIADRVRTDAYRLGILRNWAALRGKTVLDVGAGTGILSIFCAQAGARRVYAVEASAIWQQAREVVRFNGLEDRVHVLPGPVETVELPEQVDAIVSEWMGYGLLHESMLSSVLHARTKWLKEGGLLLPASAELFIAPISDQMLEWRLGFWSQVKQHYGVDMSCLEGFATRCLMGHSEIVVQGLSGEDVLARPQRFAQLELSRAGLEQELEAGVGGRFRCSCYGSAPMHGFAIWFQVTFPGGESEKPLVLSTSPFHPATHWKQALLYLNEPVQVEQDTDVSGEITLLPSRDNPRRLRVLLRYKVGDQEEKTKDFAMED
UniProt P50750: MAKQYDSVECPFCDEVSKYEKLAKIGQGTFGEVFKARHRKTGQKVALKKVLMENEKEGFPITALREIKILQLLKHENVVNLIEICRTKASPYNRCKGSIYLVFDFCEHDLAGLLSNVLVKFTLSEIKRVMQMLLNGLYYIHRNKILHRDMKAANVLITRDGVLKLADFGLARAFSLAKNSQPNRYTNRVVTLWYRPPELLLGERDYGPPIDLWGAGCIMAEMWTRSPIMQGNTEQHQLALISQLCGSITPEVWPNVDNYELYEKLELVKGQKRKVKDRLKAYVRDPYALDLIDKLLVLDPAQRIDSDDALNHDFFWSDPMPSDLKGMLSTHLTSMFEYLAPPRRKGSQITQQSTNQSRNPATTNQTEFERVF

- binding: binds
Substance: CDK9 (from UniProt P50750 1-372) (enzyme)

From PMC11025288
